# Results from PubChem BioAssay AID2685 (National Center for Advancing Translational Sciences (NCATS), 2010).
# Screen size: about 320,000 compounds; about 2,100 (0.66%) were called active. The shares of active, inactive and inconclusive entries below differ from those in the screen. Calls follow the shape of the dose curve; as a rule, active = well fitted inhibition curve with a large enough effect in the signal ratio, with a control signal flat (not every such curve was filed as active); inconclusive = small, poorly fitted or top-dose-only effect, or effect the other way, or a change in a side signal; inactive = flat fitted curve, though single readings scatter; the % refers to the signal ratio. Where the call is inconclusive, the potency comes from a doubtful curve fit.
# Experiment: qHTS Assay for Lipid Storage Modulators in Drosophila S3 Cells
# Conditions: BODIPY lipid droplet fluorescence, 18-24 h, cells fed with added oleic acid; lipid storage change, negative = inhibition: at 46.1 µM (top of the series) unless noted
# In short: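 Laser-scanning cytometry quantifies lipid droplet accumulation (500–530 nm total intensity; droplet/cell object ratio) in oleic acid-fed (400 uM added) Drosophila S3 cells treated with a concentration series. 20 uM Triacsin C defined 100% inhibition.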
# % is scaled to controls: 0 for no effect and ±100 for the full control effect; potency is read from the fitted curve at half-maximal effect.
SMILES,"lipid storage change, negative = inhibition",Potency,outcome
CC1=NN(C(N)=S)C(=O)C1N=Nc1ccccc1O (stereo not given),inactive: 2.59%,–,–
Cc1ccc(NC(=O)c2cnn(-c3ccccc3)c2NC(=O)c2ccco2)cc1C,inconclusive: 8%,–,–
Cc1ccc(OCCN(C)C(=O)C2CCC(=O)N(CCCN3CCOCC3)C2)cc1 (stereo not given),–,"inconclusive: 20.6 µM [activator, partial curve]",–
CC(C)(CO)CNC1CCCN(C2Cc3ccccc3C2)C1 (stereo not given),inconclusive: 32.1%,–,–
COc1ccc(CCn2c(Br)nc3c2c(=O)[nH]c(=O)n3C)cc1,inconclusive: -5.75%,–,–
O=C(Cn1cc([N+](=O)[O-])cn1)Nc1nc2ccccc2s1,–,–,inactive [at 46.1 µM]
Cc1cccc(OCC(=O)NNC(=O)CSc2ncc(C#N)c(N)n2)c1,inconclusive: -9.38%,–,–
CCC(C)Sc1ccc([C@@H]2[C@@H]3C(=O)N(C)C(=O)[C@@H]3[C@]3(C(=O)OC)CCCCN23)cc1OC (stereo not given in full),–,"inconclusive: 2.06 µM [falling, partial curve, poor fit]",–
CC(NC(=O)CN(Cc1ccccc1)S(=O)(=O)c1ccccc1)c1cccnc1 (stereo not given),inconclusive: 9.95%,–,–
Cc1c(Cl)cccc1NC(=O)NCc1ccc(C)n1C,inconclusive: 16.5%,–,–
NNC(=O)c1csc(CS(=O)(=O)c2ccc(Cl)cc2)n1,–,"inconclusive: 1.64 µM [activator, partial curve]",–
CCCCN(C(=O)C1=COCCO1)c1c(N)n(CCC)c(=O)[nH]c1=O,–,"inconclusive: 29.1 µM [activator, single point]",–
COc1ccccc1OCc1ccc(C(=O)NCC(C)C)o1,inconclusive: 23.5%,–,–
COCC(C)n1c(SCc2nc3ccccc3c(=O)[nH]2)nc2ccccc2c1=O (stereo not given),inconclusive: -55.8%,–,–
COc1ccc(N(C(=O)CNC(=O)c2ccco2)C(C(=O)NC2CCCC2)c2ccc(C)o2)cc1 (stereo not given),inconclusive: 21.5%,–,–
Cc1nn(Cc2ccccc2Cl)c(C)c1NC(=O)CCCn1nc([N+](=O)[O-])c(Cl)c1C,inconclusive: -53%,–,–
Cc1ccc(Cn2c(=N)c(C(=O)NCCN3CCOCC3)cc3c(=O)n4ccccc4nc32)cc1,inactive: -18.6%,–,–
CC(C)c1ccc(NC(=O)C2CC(=O)N(C3CCCC3)C2)cc1 (stereo not given),inconclusive: -23.9%,–,–
O=C(CCNC(=O)c1ccccc1Cl)Nc1ccc(Br)c(C(F)(F)F)c1,–,"inconclusive: 18.4 µM [activator, partial curve]",–
O=C(c1cccc(S(=O)(=O)N2CCCCC2)c1)N1CCOCC1,inconclusive: 42.2%,–,–
O=C(NCCc1ccc(F)cc1)Nc1ccccc1,inconclusive: -48.2%,–,–
COc1ccc(NC(=O)Nc2ccc(OC)cc2)cc1,–,–,inactive [at 46.1 µM]
O=C(Nc1nc(N2C(=O)c3ccccc3C2=O)n(-c2ccccc2)n1)c1ccc(F)cc1,inconclusive: 10.3%,–,–
Cc1ccc(NC(=O)c2cccc(C(F)(F)F)c2)cc1NC(=O)c1[nH]cnc1C(N)=O,–,active: 0.517 µM,–
CCOc1ccc(N(C)S(=O)(=O)c2cnc[nH]2)cc1,–,"inconclusive: 0.651 µM [activator, full curve, poor fit]",–

# Entries of single compounds, quoted from the list.
# Cc1c(Cl)cccc1NC(=O)NCc1ccc(C)n1C as listed: lipid storage change, negative = inhibition: inconclusive: 16.5%
# Cc1ccc(NC(=O)c2cccc(C(F)(F)F)c2)cc1NC(=O)c1[nH]cnc1C(N)=O as listed: Potency: active: 0.517 µM
# O=C(Nc1nc(N2C(=O)c3ccccc3C2=O)n(-c2ccccc2)n1)c1ccc(F)cc1 as listed: lipid storage change, negative = inhibition: inconclusive: 10.3%

# (list continues)

SMILES,"lipid storage change, negative = inhibition",Potency,outcome
COc1ccc(-n2c(-c3ccc(Cl)cc3)c[n+]3c2CCc2ccccc2-3)cc1,–,"inconclusive: 29.1 µM [cytotoxic, single point]",–
O=C(NCc1ccccc1)C1=C[C@H](c2coc3ccccc3c2=O)C[C@H](OCc2ccc(CO)cc2)O1,inconclusive: -27.4%,–,–
Cc1nonc1NC(=O)OCCN1CCOC1=O,inconclusive: 1.82%,–,–
O=C1CN(C(=O)COC(=O)c2ccccc2NC(=O)c2ccco2)c2ccccc2N1,–,"inconclusive: 6.51 µM [activator, single point]",–
CCOC(=O)[C@H]1[C@H]2COc3cc(OC)ccc3[C@@H]2N2C(=O)c3cc(F)c(F)cc3NC(=O)[C@@]12C,–,active: 6.51 µM,–
Nc1ncnc2nc(Sc3ccc(Cl)cc3)[nH]c12,inconclusive: 6.25%,–,–
COC(=O)c1ccc(NS(=O)(=O)c2cc3c4c(c2)CCN4C(=O)CC3)cc1,inconclusive: 18.5%,–,–
Cn1c(O)c(N=NC(=O)C2COc3ccccc3O2)c2ccccc21 (stereo not given),–,"inconclusive: 3.66 µM [activator, single point]",–
O=C(O)c1ccc2cccnc2c1O,inconclusive: 6.83%,–,–
CCn1cnc2c(Nc3cccc(Cl)c3)nc(C#N)nc21,inconclusive: -72.2%,–,–
COc1ccc(OC(=O)Cc2cccc3ccccc23)cc1,inconclusive: 144%,–,–
O=C(N/N=C/c1ccc([N+](=O)[O-])o1)C1CCCC1,–,"inconclusive: 29.1 µM [falling, single point]",–
COC(=O)C(C#N)C(c1cccnc1)c1c(C)[nH][nH]c1=O (stereo not given),–,"inconclusive: 2.59 µM [falling, single point]",–
COC(=O)c1c(N=CN(C)C)c(C#N)c2n1CCCC2,inconclusive: -21.8%,–,–
O=C(NN1C(=O)/C(=C/C=C/c2ccco2)SC1=S)c1ccccc1O,–,"inconclusive: 32.6 µM [falling, single point]",–
O=C(CSc1nnc(-c2ccc(Br)cc2)o1)Nc1cccc(C(=O)O)c1,–,"inconclusive: 4.11 µM [falling, single point]",–
COCCn1c(C)cc(C(=O)CN2C(=O)NC3(CCCCCC3)C2=O)c1C,–,"inconclusive: 6.51 µM [activator, single point]",–
CCN1CCN(C(=O)c2cc(S(=O)(=O)Nc3ccc(S(C)(=O)=O)cc3)ccc2Cl)CC1,inconclusive: -29%,–,–
Cc1noc(C)c1CSCC(=O)OCc1nc2ccccc2c(=O)n1CC#N,–,"inconclusive: 25.9 µM [activator, single point]",–
CC1CCc2c(C(=O)Nc3ccc(OC(F)(F)F)cc3)csc2C1 (stereo not given),inconclusive: 17.2%,–,–
CCCCN(CC)Cc1ccc(CNC(=S)Nc2c(C)cc(C)cc2C)o1,inconclusive: -3.72%,–,–
O=C(O)C1CC=CCC1C(=O)NC12CC3CC(CC(C3)C1)C2 (stereo not given),–,"inconclusive: 29.1 µM [falling, partial curve, poor fit]",–
CCN(C(=O)CSc1ncccc1C(=O)Oc1cccc([N+](=O)[O-])c1)c1cccc(C)c1,inconclusive: -34.6%,–,–
COc1ccc(CCNC(=O)c2cc(S(=O)(=O)N3CCCCCC3)ccc2OC)cc1OC,–,"inconclusive: 14.6 µM [falling, single point]",–
NNC(=O)CNC(=O)c1cccc(Br)c1,inactive: 8.24%,–,–

SMILES,"lipid storage change, negative = inhibition",Potency,outcome
O=C(COC(=O)c1ccc(O)cc1O)N=c1sccn1Cc1ccccc1Cl,inconclusive,–,–
COc1cc(OC)nc(Oc2ccc(NC(C)=O)cc2)n1,inconclusive: 0.18%,–,–
COc1ccc2cc(C(=O)N3CCN(Cc4ccc5c(c4)OCO5)CC3)[nH]c2c1,–,"inconclusive: 29.1 µM [activator, single point]",–
CC(=O)N1CCN(CC(=O)Nc2c(Cl)ccc(C)c2Cl)CC1,inconclusive: 37.3%,–,–
O=C(c1ccc(S(=O)(=O)N2CCCC2)cc1)N1CCN(S(=O)(=O)c2cccc(F)c2)CC1,inconclusive: 37.8%,–,–
O=C(CN(C(=O)CCC(=O)Nc1nccs1)c1ccc(F)c(Cl)c1)NCc1ccco1,inconclusive: 5.06%,–,–
COc1cccc(CN2CCCC(C(=O)Nc3ccc(-c4cscn4)cc3)C2)c1 (stereo not given),–,"inconclusive: 0.92 µM [activator, full curve, poor fit]",–
C=CCCCCCCCCC(=O)Nc1ncccn1,inconclusive: -24.6%,–,–
Cc1ccc(CC(=O)N2CCN(C(=O)c3ccco3)CC2)cc1,inconclusive: 37.4%,–,–
CC(C(=O)N(C)CC(=O)Nc1ccccc1C(F)(F)F)N1C(=O)c2ccccc2C1=O (stereo not given),–,"inconclusive: 16.4 µM [activator, partial curve, poor fit]",–
Cc1c(OC(C)C(=O)NCCCN2CCOCC2)ccc2c3c(c(=O)oc12)CCCC3 (stereo not given),–,–,inactive [at 46.1 µM]
CC(CCN1CCN(c2ccccn2)CC1)c1ccccc1 (stereo not given),inconclusive: 21.7%,–,–
COc1cccc(CN2CCCC(CNC(=O)c3ccc(F)cc3)C2)c1OC (stereo not given),inconclusive: 19%,–,–
COc1cc(C(c2c(C)[nH][nH]c2=O)c2c(C)[nH][nH]c2=O)cc(Cl)c1O,–,"inconclusive: 25.9 µM [falling, single point]",–
Cc1ccc(N2C(=O)CSC2c2c(F)cccc2Cl)cc1 (stereo not given),inconclusive: -23.3%,–,–
COc1ccc(-c2cc(=O)oc3c(C)c(OC(=O)c4cccs4)ccc23)cc1,–,"inconclusive: 1.3 µM [cytotoxic, partial curve]",–
O=S(=O)(Nc1cccc(-c2cn3cccnc3n2)c1)c1ccccc1,–,"inconclusive: 0.146 µM [activator, full curve]",–
O=C(Nc1ccncc1)c1ccc(F)cc1,inconclusive: -49%,–,–
CN(C)C(=O)C1(c2ccccc2)CCN(S(=O)(=O)c2ccccc2)CC1,inconclusive: -3.26%,–,–
O=C(CSc1nnc(-c2cccs2)n1-c1ccccc1)N1CCOCC1,inconclusive: -24.8%,–,–
NS(=O)(=O)c1ccc(CCNC(=O)Cn2c(=O)c3cccn3c3cccnc32)cc1,–,"inconclusive: 0.58 µM [falling, single point]",–
COCCNC(=O)CN(c1ccc(C)cc1)S(=O)(=O)c1ccc(SC)cc1,inconclusive: 3.27%,–,–
Cc1ccc(NC(=O)CCn2ccc([N+](=O)[O-])n2)nc1,–,"inconclusive: 11.6 µM [activator, partial curve]",–
CCOC(=O)c1sc2nc(C)nc(SCC(=O)N(C)C3CCS(=O)(=O)C3)c2c1C (stereo not given),inconclusive: 1.32%,–,–
COc1ccc(C(=O)Cn2nnc(-c3ccc(N4CCOCC4)cc3)n2)cc1OC,–,"inconclusive: 2.31 µM [rising, single point]",–

# Single entries from above.
# Entry of `COCCNC(=O)CN(c1ccc(C)cc1)S(=O)(=O)c1ccc(SC)cc1` under lipid storage change, negative = inhibition: inconclusive: 3.27%
# Entry of `COc1cc(OC)nc(Oc2ccc(NC(C)=O)cc2)n1` under lipid storage change, negative = inhibition: inconclusive: 0.18%
